# Patent US20250207104A1, “METHOD FOR PRODUCING INNER EAR ORGANOIDS USING RETINOIC ACID AND INNER EAR ORGANOIDS PRODUCED BY THE METHOD” (AJOU UNIVERSITY INDUSTRY-ACADEMIC COOPERATION FOUNDATION, priority 2023, published 2025)
# At least one compound was matched to its structure with a doubt left.
# Legend:
# [1] = tested on: inner ear organoids from human induced pluripotent stem cells (CMC-11 and mND2-0); test: Microscopic observation of organoid morphology and buds on day 20; assay type: cell-based; conditions: retinoic acid 1-20 μM day 12 to day 18, compared to the control group, FIG. 2
# [2] = tested on: inner ear organoids formed with the mND2-0 cell line; test: Fluorescent immunostaining of inner ear organoids on day 90 (confocal microscope); assay type: cell-based, human; conditions: retinoic acid 1-20 μM, particularly 1 μM to 5 μM, compared to the control group, FIG. 4
# [3] = tested on: inner ear organoids from human induced pluripotent stem cells (CMC-11 and mND2-0); test: qRT-PCR of hair cell differentiation-related mRNA on day 25 of inner ear organoid production; assay type: cell-based; conditions: retinoic acid on day 12 to day 18, vs control, FIG. 3
# [4] = tested on: inner ear organoids from human induced pluripotent stem cells (CMC-11 and mND2-0); test: qRT-PCR of hair cell marker mRNA on day 90 of inner ear organoid production; assay type: cell-based; conditions: retinoic acid day 12 to day 18, vs control, *P<0.05, FIG. 5
smiles,measurement,setting,value
CC1=C(/C=C/C(C)=C/C=C/C(C)=C/C(=O)O)C(C)(C)CCC1 [retinoic acid],number of organoid buds,[1],increased
same,expression of Myosin VIIA and the like (immunostaining),[2],increased
same,"mRNA expression levels of all markers (DLX5, OTX2, NR2F1, FBXO2, NeuroD1, ECAD, PAX2, ATOH1, ESPIN, MYO7A, POU4F3, PRESTIN, SOX2)",[3],increased
same,"mRNA expression levels of hair cell markers (ATOH1, ESPIN, MYO7A, POU4F3) and outer hair cell markers (PRESTIN)",[3],significantly increased
same,"mRNA expressions of hair cell markers (MyoVIIA, Atoh1 and Parvalbumin (PV))",[4],higher
